# Laboratory results published in PubChem BioAssay AID493014 (National Center for Advancing Translational Sciences (NCATS), 2011).
# “And” between values parts separate entries of the source, which are not always exact repeats. Identical values can stand only once. The list shows a part of the results. Shown are side measurements of this screen, not its main read-out; they come without a call. Compounds called inactive in the main read-out are mostly missing here. The note in brackets gives the kind of curve behind each potency; many fits are weak.
# Experiment: qHTS Assay to Find Inhibitors of Chronic Active B-Cell Receptor Signaling
# Conditions: ABC-DLBCL IkBa-CBG/CBR reporter, luminescence ratio (green luciferase fused to IkBa over red control in TMD8 lymphoma cells), 4 h
# Outline: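 TMD8 human ABC-DLBCL cells with doxycycline-inducible IκBα–green luciferase fusion and unfused red luciferase, in 0.5% FBS medium; compounds up to 46 uM, 4 h at 37C. Green/red luminescence ratio, filter-overlap corrected, fitted to concentration-response curves.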
# [1] = measured here: CBR red luminescence, cell number
# [2] = measured here: IkBa-CBG green luminescence
SMILES,AC50 [1],AC50 [2]
Cc1ccc(S(=O)(=O)N2CCCC2C(=O)OCc2nc3sc(C)c(C)c3c(=O)[nH]2)cc1 (centres undefined),"16.4 µM [falling, partial curve, poor fit]",
COc1cc(CNCCO)ccc1OC1CCCC1,"4.11 µM [falling, single point]",
Cc1nc2cc(-c3ccccc3)nn2c(C)c1CCC(=O)NCc1ccco1,"20.6 µM [falling, single point]",
O=C1C=C(c2cc(F)ccc2F)C[C@@H](c2ccc(Cl)cc2)C1,"1.46 µM [rising, partial curve, poor fit]",
O=C(Nc1ccc(O)cc1C(=O)O)c1cccc(Br)c1,"0.316 µM [falling, full curve]",
O=C(Nc1ccc(F)cc1)c1cccnc1N1CCCCC1,"0.164 µM [falling, partial curve, poor fit]",
Cc1onc(-c2ccccc2)c1C(=O)OCC(=O)Nc1ccccc1,"6.51 µM [rising, single point]",
COc1ccc2nc(C)cc(SCC(=O)N/N=C/c3cccc4ccccc34)c2c1,"18.4 µM [falling, single point]",
COC(=O)c1cn(C(=O)c2cc(C)cc(C)c2)c2ccccc12,"5.62 µM [rising, full curve, poor fit]",
Oc1[nH]c2ccccc2c1N=Nc1nc(Nc2ccccc2)nc(N2CCOCC2)n1,"22.4 µM [falling, single point]",
COc1cc(CNc2ccc(N3CCCC3)cc2)ccc1OCc1ccccc1F,"5.8 µM [falling, full curve]",
COc1ccc(C2NC(=O)C(C#N)=C(S)N2c2cccc(C)c2)cc1OC (centres undefined),"11.2 µM [rising, partial curve]","25.1 µM [falling, single point]"
COc1ccc(S(=O)(=O)N(C)C)cc1NC(=O)CSc1nncs1,"14.1 µM [rising, partial curve, poor fit]",
N#Cc1nc(Cc2cccc3ccccc23)oc1NCCN1CCCCC1,"12.6 µM [falling, partial curve, poor fit]",
COc1ccc(/C=N/NC(=O)c2ccc(Cn3cc([N+](=O)[O-])cn3)o2)cc1O,"4.61 µM [falling, partial curve, poor fit]",
COC(=O)c1ccc(NC(=O)c2cccc(C)c2[N+](=O)[O-])cc1,"3.98 µM [falling, partial curve, poor fit]",
COc1ccc(-c2noc(CCC(=O)NCCc3ccccc3)n2)cc1OC,"15.8 µM [rising, single point]",
CCOc1ccc(NC(=O)Nc2cccn(Cc3ccccc3)c2=O)cc1,"35.5 µM [falling, single point]",
CCNc1cc(N2CCOCC2)nc(SC)n1,"20 µM [falling, partial curve, poor fit]",
O=C(C1=C[C@H](c2ccc(Br)cc2)C[C@H](OCc2ccc(CO)cc2)O1)N1CCN(Cc2ccc3c(c2)OCO3)CC1,"15.8 µM [falling, single point]",
O=c1cc(-c2ccccc2Cl)oc2c(NS(=O)(=O)c3cc(Cl)cc(Cl)c3O)ccc(O)c12,"29.1 µM [falling, single point]",

SMILES,AC50 [1],AC50 [2]
CSc1ccccc1NC(=O)C1=CC(c2cccs2)=NS(=O)(=O)N1C,"35.5 µM [falling, single point]",
Cc1cccc(NC(=O)CSc2ncnc3nc[nH]c23)c1,"0.112 µM [falling, full curve, poor fit]",
CS(=O)(=O)N(Cc1ccccc1Cl)c1ccc(C(=O)N2CCCC2)cc1,"6.31 µM [rising, single point]",
Cn1c(=O)n(C)c2cc(C(=O)Nc3ccc4c(c3)OCO4)ccc21,"29.1 µM [rising, single point]",
COc1cc(/C=N/Nc2nc(Nc3ccccc3)nc(-n3nc(C)cc3C)n2)cc(OC)c1OC,"0.731 µM [falling, full curve]",
O=[N+]([O-])c1ccc(-[n+]2nc(-c3ccccc3)nn2-c2ccccc2)cc1,"15.8 µM [rising, single point]",
CCOc1ccc(S(=O)(=O)N(C)c2ccc(OCC(=O)OCc3c(C)noc3C)cc2)cc1,"35.5 µM [rising, single point]",
CCNC(=O)COc1cc(C)c(Br)c(C)c1,"6.31 µM [rising, partial curve, poor fit]",
CCCCN(CC)C(=O)CSc1nc2n[nH]c(C)c2c(=N)n1-c1cccc(OC)c1,"35.5 µM [falling, single point]",
Cc1c(O)ccc(/C(Cc2ccc3ccccc3n2)=N\N)c1O,"2.51 µM [rising, single point]",
C=CCn1c(SCC(=O)NC(=O)NCCC)nnc1C1CCCCC1,"7.94 µM [falling, partial curve, poor fit]",
CNCCCN1c2ccccc2CCc2ccccc21,"22.4 µM [falling, partial curve, poor fit]",
COC(=O)c1cn(NC(=O)/C=C/c2cc(OC)ccc2OC)c(=O)c2ccccc12,"29.1 µM [falling, single point]",
CNC(=O)c1c(NC(=O)c2nc3ccccc3s2)sc2c1CCC2,"0.0731 µM [falling, full curve]",
Fc1cccc(NC(=S)Nc2ccc(Br)cc2)c1,"3.55 µM [rising, partial curve, poor fit]",
CCOc1ccc(Cl)cc1/C=N/O,"11.2 µM [rising, partial curve]",
Cc1ccccc1OCCC(=O)N(Cc1ccccc1)c1c(N)n(Cc2ccccc2)c(=O)[nH]c1=O,"11.2 µM [falling, single point]",
CSc1cccc(NC(=O)CCCOc2ccc(Cl)cc2Cl)c1,"29.1 µM [falling, single point]",
O=S(=O)(c1ccc(Cl)cc1)c1snnc1-c1ccccc1,"2.31 µM [falling, single point]",
Cc1cc(C(=O)N2CCCC(N3CCN(c4cccc(C(F)(F)F)c4)CC3)C2)c(C)o1 (centres undefined),"8.91 µM [falling, partial curve, poor fit]",
CNS(=O)(=O)c1cc(NC(=O)c2cncn2-c2ccccc2)ccc1C,"7.94 µM [rising, partial curve, poor fit]",

SMILES,AC50 [1],AC50 [2]
O=S(=O)(Nc1nc(SCc2ccc(Cl)cc2)n[nH]1)c1ccc(F)cc1,"6.31 µM [rising, single point]",
CC(=O)N1CCc2cc(S(=O)(=O)NCCC(=O)NC3CCCc4ccccc43)ccc21 (centres undefined),"4.61 µM [rising, single point]",
CCOc1cc(/C=C/c2nc3ccccc3c(=O)[nH]2)ccc1O,"12.6 µM [falling, partial curve, poor fit]",
CC(C)CN(CCCNC(=O)CN1N=C(c2ccc(Cl)cc2)CCC1=O)CC(C)C,"35.5 µM [falling, single point]",
COCC(C)NC(=O)c1cc(-c2ccc(O)cc2)on1 (centres undefined),"12.6 µM [falling, partial curve]",
C[C@H](CO)N1C[C@H](C)[C@@H](CN(C)S(=O)(=O)c2cccs2)Oc2ccc(NC(=O)Cc3ccccc3)cc2C1=O,"16.4 µM [rising, partial curve, poor fit]",
C=CCn1c(-c2cc3c(s2)CCC(CC)C3)n[nH]c1=S (centres undefined),"15.8 µM [rising, single point]",
Cc1ccc(-n2c(=O)[nH]c3c(C(N)=O)nc(CC(C)C)nc32)cc1,"3.26 µM [falling, partial curve]",
O=Cc1ccc(N2CCCCCC2)cc1,"0.146 µM [rising, full curve, poor fit]",
O=C(CSc1cccc[n+]1[O-])Nc1ccccc1Oc1ccccc1,,"3.16 µM [falling, full curve]"
O=C(Nc1ccccc1)c1ccccc1C(=O)N1CCCCC1,"10 µM [rising, partial curve, poor fit]",
CC(=O)Cc1nsc(NC(=O)c2cc(-c3ccccc3Cl)oc2C)n1,,"18.4 µM [rising, partial curve, poor fit]"
COc1ccc(CNC(=O)c2cc(-c3cc(C)cc(C)c3O)n[nH]2)cc1,"11.2 µM [falling, partial curve, poor fit]",
Cc1ccc(-c2nc(C#N)c(NCCc3ccccn3)o2)cc1,"14.1 µM [rising, partial curve, poor fit]",
O=C(NC(Cc1c[nH]c2ccccc12)C(=O)Nc1ccc(F)cc1)c1cccs1 (centres undefined),"18.4 µM [falling, single point]",
CSc1ccccc1NC(=O)CSc1nnc(COc2ccccc2)o1,"8.91 µM [falling, partial curve]",
O=C(NC(=S)NC1CCSC1=O)c1ccccc1 (centres undefined),,"32.6 µM [falling, partial curve, poor fit]"
CCc1c(C)sc(NC(=O)c2ccco2)c1C(=O)N1CCCCC1,"6.51 µM [rising, single point]",
O=C(CN1C(=O)c2ccccc2S1(=O)=O)N1CCN(Cc2ccc3c(c2)OCO3)CC1,"0.291 µM [rising, full curve, poor fit]",
CCc1nnc(NC(=O)c2cccc(S(=O)(=O)N3CC(c4ccccc4)CC3=O)c2)s1 (centres undefined),"0.731 µM [falling, full curve, poor fit]",
O=[N+]([O-])c1ccc(SCCc2ccncc2)cc1,"12.6 µM [rising, single point] and 7.08 µM [falling, partial curve, poor fit]",
